Results as given in the supplement of paper PMC10849652.
Some of the results follow.

Sequences of proteins named here, by UniProt entry; tags and fusion partners are left off. A change or cut given only in a name is not applied to a line headed by its entry.
UniProt Q1KMD3: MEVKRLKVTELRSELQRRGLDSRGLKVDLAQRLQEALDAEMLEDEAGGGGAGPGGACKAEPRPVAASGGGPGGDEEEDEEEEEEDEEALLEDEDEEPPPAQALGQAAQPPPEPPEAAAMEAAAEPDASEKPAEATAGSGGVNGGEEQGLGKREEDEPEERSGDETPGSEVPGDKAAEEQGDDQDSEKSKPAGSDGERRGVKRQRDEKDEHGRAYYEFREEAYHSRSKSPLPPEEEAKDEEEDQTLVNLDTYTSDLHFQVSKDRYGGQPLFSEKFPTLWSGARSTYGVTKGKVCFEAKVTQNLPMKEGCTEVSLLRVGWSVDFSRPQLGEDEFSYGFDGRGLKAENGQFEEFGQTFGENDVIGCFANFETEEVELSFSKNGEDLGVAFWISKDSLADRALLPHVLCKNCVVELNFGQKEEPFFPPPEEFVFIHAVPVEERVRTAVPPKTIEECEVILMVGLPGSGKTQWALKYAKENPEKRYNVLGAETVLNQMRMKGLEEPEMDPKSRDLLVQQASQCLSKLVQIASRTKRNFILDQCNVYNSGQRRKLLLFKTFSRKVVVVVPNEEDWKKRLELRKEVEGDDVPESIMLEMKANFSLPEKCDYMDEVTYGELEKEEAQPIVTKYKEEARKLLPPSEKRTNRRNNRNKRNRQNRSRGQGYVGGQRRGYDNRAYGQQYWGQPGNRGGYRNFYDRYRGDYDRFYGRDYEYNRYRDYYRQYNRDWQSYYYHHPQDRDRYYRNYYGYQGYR
UniProt P09429: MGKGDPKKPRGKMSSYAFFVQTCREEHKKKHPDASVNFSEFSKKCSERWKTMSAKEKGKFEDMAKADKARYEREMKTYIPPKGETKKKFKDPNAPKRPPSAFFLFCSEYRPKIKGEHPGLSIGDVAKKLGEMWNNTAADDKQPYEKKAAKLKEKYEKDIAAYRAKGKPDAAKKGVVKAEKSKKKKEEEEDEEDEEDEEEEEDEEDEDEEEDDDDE
UniProt P61604, whole entry, looked up: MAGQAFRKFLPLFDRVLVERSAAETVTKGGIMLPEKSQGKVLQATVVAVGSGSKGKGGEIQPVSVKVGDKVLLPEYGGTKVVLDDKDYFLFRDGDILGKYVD
UniProt Q9NQE9: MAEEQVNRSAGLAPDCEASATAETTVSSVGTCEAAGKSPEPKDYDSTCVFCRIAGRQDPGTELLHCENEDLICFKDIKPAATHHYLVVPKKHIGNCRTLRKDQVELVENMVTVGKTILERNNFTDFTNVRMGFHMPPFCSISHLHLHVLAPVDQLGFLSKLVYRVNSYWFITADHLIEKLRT
UniProt Q15651: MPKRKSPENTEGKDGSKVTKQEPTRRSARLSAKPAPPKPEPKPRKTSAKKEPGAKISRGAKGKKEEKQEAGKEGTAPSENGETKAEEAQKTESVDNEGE
UniProt Q01581: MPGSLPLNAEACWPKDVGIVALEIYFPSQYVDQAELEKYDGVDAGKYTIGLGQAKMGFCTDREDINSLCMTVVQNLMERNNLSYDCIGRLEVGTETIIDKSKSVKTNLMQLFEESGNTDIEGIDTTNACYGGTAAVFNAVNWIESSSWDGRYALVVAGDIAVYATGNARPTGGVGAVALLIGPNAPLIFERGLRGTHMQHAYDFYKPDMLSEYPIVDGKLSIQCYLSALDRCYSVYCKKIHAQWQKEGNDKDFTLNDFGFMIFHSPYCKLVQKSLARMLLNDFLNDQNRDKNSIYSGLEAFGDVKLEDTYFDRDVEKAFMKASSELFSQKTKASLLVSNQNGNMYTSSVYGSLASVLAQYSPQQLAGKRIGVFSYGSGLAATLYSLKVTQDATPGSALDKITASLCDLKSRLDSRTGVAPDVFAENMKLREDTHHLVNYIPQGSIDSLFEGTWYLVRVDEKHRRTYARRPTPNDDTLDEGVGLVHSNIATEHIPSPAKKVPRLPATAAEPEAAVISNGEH
UniProt P05114: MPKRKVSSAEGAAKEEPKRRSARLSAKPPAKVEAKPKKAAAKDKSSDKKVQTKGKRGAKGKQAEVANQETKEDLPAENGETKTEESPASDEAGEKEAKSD
UniProt O43464: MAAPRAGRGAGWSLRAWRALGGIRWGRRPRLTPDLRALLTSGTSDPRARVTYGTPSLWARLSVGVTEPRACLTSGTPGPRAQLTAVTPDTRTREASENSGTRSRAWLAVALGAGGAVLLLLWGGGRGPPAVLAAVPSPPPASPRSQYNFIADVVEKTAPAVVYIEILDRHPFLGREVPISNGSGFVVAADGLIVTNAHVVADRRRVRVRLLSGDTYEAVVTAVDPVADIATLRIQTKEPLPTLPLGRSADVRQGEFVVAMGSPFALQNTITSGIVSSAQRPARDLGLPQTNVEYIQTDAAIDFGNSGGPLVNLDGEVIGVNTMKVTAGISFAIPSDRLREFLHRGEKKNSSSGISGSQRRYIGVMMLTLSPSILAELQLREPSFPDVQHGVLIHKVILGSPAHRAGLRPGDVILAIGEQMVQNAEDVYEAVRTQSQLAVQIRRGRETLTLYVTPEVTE
UniProt Q14103: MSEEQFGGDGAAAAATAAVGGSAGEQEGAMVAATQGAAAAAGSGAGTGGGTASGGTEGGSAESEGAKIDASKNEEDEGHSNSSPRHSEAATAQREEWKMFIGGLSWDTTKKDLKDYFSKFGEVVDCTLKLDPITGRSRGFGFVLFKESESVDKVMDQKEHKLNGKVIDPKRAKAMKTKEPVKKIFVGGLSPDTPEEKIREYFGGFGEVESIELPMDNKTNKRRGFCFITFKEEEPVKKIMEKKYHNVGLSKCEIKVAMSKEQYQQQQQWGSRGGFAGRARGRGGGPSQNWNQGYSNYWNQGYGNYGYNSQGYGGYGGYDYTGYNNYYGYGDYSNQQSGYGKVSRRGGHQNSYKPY
UniProt P50747: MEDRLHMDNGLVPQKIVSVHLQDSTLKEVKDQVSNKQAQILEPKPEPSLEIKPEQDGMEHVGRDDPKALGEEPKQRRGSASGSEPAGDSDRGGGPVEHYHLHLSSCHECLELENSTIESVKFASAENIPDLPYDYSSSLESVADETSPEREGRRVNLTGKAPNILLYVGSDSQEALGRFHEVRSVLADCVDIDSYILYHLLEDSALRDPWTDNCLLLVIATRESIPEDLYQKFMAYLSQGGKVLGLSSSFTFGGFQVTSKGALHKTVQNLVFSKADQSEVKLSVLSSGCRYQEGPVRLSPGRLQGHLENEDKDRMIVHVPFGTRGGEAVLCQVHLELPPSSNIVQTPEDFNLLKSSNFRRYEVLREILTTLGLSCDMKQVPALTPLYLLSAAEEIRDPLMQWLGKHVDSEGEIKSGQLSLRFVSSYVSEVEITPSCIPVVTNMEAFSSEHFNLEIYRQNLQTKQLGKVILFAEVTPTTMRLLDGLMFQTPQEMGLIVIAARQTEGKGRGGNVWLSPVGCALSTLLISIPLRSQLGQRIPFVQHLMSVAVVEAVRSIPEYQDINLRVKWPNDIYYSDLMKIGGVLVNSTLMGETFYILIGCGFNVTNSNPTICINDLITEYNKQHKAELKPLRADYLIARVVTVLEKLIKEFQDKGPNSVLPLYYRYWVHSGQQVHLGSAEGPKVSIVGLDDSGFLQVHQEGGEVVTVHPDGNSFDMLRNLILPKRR
UniProt O43390: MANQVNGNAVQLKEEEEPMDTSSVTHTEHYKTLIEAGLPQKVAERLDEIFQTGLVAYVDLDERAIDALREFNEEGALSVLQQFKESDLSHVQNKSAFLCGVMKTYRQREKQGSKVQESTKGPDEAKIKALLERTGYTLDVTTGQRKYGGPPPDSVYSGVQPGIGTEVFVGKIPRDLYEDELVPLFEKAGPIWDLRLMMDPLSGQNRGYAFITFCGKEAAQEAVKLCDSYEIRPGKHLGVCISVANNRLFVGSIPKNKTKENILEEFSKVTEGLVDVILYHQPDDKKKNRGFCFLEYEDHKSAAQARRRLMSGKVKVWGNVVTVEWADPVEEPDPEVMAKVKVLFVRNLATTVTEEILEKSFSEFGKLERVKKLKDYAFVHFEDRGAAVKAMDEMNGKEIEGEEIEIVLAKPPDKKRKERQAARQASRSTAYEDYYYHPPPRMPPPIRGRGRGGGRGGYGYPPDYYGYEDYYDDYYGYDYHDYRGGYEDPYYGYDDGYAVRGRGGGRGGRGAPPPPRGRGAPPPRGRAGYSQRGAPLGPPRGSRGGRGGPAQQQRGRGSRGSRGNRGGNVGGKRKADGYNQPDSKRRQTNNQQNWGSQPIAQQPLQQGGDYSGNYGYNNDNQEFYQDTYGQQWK
UniProt Q00613: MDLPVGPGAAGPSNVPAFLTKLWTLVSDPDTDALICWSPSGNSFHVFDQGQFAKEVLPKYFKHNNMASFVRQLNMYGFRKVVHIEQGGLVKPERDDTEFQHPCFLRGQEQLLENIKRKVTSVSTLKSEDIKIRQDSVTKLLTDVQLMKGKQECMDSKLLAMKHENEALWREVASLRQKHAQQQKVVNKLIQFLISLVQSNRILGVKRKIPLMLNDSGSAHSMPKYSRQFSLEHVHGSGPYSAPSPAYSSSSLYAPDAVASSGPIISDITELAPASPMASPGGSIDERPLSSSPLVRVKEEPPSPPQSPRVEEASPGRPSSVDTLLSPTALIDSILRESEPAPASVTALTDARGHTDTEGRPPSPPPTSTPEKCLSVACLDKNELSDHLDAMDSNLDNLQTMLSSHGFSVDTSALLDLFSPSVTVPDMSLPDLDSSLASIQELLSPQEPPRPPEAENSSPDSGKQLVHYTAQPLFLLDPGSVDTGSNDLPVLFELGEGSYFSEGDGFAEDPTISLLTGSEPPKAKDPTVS
UniProt P22626: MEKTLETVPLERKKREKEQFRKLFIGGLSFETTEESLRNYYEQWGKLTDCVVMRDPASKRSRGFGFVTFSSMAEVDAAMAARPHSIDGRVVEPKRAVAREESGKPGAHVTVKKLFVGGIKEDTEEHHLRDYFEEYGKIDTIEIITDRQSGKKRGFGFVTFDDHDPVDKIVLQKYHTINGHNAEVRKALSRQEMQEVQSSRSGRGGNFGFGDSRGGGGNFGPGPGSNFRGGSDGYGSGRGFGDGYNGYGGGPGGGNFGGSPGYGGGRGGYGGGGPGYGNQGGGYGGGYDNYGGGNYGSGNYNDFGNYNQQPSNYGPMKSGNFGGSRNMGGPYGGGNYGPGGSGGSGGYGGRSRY
UniProt P0DMV8, whole entry, looked up: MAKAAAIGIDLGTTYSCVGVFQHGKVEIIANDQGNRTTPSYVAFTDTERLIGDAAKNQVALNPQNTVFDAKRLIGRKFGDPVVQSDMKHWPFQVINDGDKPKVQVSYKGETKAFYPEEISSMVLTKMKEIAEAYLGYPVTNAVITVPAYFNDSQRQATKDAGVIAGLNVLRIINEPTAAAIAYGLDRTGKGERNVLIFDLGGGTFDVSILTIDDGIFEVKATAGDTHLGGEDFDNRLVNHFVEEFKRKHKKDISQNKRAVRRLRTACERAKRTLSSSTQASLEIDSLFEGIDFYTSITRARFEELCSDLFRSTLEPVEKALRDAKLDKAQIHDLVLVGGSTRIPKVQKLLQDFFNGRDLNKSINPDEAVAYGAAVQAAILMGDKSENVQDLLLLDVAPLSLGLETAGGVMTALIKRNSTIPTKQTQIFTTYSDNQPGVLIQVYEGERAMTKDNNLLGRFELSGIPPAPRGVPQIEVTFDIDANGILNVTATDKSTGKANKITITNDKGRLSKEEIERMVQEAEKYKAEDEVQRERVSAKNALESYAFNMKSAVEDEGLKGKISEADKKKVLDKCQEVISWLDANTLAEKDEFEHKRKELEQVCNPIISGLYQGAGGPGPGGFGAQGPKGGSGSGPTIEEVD
UniProt P11142, whole entry, looked up: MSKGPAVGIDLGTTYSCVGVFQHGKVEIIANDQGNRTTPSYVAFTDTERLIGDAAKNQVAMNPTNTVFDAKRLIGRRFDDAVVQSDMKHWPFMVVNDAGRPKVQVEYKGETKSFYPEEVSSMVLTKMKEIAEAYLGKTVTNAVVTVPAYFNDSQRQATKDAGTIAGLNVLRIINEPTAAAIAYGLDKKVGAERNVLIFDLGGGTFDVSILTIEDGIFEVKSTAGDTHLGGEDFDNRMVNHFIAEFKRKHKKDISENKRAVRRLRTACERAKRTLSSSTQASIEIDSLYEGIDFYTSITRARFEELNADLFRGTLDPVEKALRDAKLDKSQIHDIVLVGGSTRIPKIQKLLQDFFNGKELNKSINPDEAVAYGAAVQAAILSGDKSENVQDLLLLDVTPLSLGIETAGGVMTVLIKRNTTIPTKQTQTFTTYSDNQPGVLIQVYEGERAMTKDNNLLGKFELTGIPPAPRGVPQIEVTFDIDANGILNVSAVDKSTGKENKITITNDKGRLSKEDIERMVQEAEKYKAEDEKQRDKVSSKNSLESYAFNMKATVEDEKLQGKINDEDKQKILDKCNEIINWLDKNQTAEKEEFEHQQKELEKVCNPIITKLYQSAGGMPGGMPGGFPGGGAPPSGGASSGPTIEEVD
UniProt Q03014: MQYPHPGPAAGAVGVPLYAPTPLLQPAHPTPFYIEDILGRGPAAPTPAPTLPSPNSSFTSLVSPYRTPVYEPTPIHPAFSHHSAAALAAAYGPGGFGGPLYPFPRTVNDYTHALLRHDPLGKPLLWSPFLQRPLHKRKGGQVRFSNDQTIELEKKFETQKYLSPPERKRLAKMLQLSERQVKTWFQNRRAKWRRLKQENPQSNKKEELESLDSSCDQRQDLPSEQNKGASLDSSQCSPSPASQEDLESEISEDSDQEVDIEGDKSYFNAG

Each target was assayed with CC1=C(SC2=C1C(=N[C@H](C3=NN=C(N32)C)CC(=O)N)C4=CC=C(C=C4)Cl)C (assay: log2 fold change, soluble protein after heating vs DMSO (PISA); higher = thermal stabilisation; K562 cells, 10 uM, 30 min; active = over 0.2 and 3.5 SD of the protein, either way, in both replicates (recomputed)).
Summary of the method: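 K562 cells at 2×10^6 cells/mL were treated with 10 μM compound for 30 min. Aliquots were heated for 3 min across 48°C-58°C, pooled, and extracted in PBS with 0.5% NP-40 at 4°C; soluble protein was the supernatant after 21,000xg for 90 min. Soluble protein was quantified by TMTpro 16plex LC-MS/MS with channel sums equalised, and reported as log2 fold change in thermal stability against DMSO controls, with values from duplicates.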
With HMBS (UniProt F5H226) the log2 fold change was inactive: -0.314.
With HUWE1 (UniProt Q7Z6Z7) the log2 fold change was inactive: 0.022.
HNRNPUL2 (UniProt Q1KMD3) was tested, and the log2 fold change was inactive: -0.05.
HSPA4L (UniProt O95757) was tested, and the log2 fold change was inactive: 0.028.
With HMGB1 (UniProt P09429) the log2 fold change was inactive: -0.037.
HIKESHI (UniProt Q53FT3) was tested, and the log2 fold change was inactive: 0.12.
HSPE1 (UniProt P61604) was tested, and the log2 fold change was inactive: 0.092.
For HINT3 (UniProt Q9NQE9), the log2 fold change was inactive: 0.042.
In the case of HMGN3 (UniProt Q15651), the log2 fold change is reported as inactive: -0.005.
In the case of HIST2H2BF isoform 2 (UniProt Q5QNW6), the log2 fold change is reported as inactive: -0.273.
In the case of HMGCS1 (UniProt Q01581), the log2 fold change is reported as inactive: -0.007.
For HMGN1 (UniProt P05114), the log2 fold change was inactive: -0.023.
In the case of HTRA2 (UniProt O43464), the log2 fold change is reported as inactive: 0.01.
With HNRNPD (UniProt Q14103) the log2 fold change was inactive: -0.13.
With HLCS (UniProt P50747) the log2 fold change was inactive: 0.07.
For HNRNPR isoform 2 (UniProt O43390), the log2 fold change was inactive: -0.205.
With HSF1 (UniProt Q00613) the log2 fold change was inactive: 0.177.
For HNRNPA2B1 (UniProt P22626), the log2 fold change was inactive: -0.318.
HNRNPA1 (UniProt P09651) was tested, and the log2 fold change was inactive: -0.207.
For HOOK3 (UniProt Q86VS8), the log2 fold change was inactive: -0.003.
In the case of HSPA1A (UniProt P0DMV8), the log2 fold change is reported as inactive: -0.029.
HSPA8 (UniProt P11142) was tested, and the log2 fold change was inactive: -0.032.
With HHEX (UniProt Q03014) the log2 fold change was inactive: 0.187.
